Data from the supplement of paper PMC10849652.
Some of the results follow.

By UniProt entry, the sequences of proteins in these tests, tags left out. Where a name states a change or a piece, a line headed by the entry shows the natural chain unless it says otherwise.
UniProt Q969X6: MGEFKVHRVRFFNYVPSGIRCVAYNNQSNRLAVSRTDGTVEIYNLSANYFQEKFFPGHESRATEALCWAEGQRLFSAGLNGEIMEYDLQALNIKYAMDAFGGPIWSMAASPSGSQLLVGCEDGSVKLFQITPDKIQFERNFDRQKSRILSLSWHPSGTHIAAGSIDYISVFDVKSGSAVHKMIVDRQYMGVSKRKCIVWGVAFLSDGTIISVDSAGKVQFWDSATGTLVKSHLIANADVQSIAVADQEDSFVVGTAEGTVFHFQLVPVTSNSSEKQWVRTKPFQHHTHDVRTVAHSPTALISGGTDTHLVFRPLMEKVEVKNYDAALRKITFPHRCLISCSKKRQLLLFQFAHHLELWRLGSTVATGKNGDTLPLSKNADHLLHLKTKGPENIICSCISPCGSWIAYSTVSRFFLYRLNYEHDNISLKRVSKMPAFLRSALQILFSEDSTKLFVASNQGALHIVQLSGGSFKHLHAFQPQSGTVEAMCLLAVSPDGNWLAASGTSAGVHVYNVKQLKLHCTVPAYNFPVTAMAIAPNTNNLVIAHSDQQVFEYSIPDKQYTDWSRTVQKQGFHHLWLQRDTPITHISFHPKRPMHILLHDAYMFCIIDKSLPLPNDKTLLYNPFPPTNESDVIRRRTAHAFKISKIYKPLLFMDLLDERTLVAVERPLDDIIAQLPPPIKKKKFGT
UniProt P26640: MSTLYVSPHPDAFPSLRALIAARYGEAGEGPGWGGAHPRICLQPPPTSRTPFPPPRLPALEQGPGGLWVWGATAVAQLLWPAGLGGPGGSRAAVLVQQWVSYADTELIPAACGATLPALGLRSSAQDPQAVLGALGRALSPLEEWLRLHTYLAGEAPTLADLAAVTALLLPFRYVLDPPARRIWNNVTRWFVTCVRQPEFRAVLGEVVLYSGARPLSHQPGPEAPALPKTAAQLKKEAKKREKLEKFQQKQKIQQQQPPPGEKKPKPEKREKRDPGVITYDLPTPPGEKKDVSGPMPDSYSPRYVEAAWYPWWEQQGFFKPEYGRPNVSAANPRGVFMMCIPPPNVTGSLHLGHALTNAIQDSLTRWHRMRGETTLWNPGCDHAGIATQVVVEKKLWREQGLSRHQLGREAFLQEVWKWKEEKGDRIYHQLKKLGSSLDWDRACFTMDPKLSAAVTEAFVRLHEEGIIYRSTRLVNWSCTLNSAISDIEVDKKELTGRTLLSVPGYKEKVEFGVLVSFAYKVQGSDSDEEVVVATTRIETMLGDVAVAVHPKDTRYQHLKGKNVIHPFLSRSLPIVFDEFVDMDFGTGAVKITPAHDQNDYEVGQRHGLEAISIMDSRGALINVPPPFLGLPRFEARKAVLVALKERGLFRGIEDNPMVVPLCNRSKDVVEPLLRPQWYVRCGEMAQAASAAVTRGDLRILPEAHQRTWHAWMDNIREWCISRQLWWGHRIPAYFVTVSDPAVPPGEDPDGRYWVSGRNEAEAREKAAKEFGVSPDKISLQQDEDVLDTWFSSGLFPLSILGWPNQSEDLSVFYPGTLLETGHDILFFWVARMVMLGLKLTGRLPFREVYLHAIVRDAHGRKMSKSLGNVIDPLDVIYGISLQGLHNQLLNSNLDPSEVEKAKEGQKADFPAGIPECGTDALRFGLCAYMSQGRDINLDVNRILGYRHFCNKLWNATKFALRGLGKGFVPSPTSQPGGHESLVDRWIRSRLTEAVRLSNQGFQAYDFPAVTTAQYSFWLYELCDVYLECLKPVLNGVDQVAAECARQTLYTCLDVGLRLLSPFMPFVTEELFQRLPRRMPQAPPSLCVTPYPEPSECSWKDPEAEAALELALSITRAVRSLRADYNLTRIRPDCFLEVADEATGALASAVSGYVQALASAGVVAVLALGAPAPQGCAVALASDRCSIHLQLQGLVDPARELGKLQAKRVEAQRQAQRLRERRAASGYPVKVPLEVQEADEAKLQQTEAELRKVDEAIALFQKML
UniProt Q8IX04: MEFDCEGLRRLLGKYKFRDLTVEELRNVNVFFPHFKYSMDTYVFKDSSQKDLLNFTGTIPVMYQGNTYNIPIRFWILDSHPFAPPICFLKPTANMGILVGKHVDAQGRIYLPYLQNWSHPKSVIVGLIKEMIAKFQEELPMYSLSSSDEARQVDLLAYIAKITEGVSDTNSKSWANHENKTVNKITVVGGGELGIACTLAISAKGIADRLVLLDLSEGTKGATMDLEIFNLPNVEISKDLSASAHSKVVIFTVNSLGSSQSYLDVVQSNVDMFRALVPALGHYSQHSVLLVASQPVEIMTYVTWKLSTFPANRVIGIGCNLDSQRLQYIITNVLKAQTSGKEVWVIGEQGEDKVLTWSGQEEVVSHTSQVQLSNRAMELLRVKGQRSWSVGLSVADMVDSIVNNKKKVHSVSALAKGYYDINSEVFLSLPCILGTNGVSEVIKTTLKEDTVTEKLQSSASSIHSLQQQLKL
UniProt Q9NUQ7: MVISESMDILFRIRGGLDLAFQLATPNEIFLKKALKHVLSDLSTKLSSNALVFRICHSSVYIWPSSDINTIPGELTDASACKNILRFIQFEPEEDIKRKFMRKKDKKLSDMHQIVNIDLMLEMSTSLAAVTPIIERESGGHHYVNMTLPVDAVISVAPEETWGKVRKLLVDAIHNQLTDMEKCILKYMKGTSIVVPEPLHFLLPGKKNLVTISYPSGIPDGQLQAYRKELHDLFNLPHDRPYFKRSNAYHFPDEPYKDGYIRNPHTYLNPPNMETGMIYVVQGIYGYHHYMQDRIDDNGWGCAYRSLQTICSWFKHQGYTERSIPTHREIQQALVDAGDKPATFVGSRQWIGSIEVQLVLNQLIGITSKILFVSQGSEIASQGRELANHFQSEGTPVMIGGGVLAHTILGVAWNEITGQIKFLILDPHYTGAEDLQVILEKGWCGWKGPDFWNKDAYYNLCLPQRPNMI
UniProt P54578: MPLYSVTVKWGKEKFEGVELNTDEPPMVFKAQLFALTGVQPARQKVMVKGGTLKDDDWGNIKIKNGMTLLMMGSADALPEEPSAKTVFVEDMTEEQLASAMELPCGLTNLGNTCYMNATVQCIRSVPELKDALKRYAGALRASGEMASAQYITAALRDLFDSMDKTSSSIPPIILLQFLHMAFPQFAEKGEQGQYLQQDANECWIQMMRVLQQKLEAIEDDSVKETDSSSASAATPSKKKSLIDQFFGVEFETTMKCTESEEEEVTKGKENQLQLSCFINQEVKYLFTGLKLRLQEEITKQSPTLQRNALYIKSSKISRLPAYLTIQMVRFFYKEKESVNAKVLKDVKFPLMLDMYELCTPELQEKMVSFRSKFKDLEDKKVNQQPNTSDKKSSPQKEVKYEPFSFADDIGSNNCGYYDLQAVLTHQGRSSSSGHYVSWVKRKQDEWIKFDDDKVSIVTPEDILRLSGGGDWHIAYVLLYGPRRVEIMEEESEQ
UniProt Q93009, whole entry, looked up: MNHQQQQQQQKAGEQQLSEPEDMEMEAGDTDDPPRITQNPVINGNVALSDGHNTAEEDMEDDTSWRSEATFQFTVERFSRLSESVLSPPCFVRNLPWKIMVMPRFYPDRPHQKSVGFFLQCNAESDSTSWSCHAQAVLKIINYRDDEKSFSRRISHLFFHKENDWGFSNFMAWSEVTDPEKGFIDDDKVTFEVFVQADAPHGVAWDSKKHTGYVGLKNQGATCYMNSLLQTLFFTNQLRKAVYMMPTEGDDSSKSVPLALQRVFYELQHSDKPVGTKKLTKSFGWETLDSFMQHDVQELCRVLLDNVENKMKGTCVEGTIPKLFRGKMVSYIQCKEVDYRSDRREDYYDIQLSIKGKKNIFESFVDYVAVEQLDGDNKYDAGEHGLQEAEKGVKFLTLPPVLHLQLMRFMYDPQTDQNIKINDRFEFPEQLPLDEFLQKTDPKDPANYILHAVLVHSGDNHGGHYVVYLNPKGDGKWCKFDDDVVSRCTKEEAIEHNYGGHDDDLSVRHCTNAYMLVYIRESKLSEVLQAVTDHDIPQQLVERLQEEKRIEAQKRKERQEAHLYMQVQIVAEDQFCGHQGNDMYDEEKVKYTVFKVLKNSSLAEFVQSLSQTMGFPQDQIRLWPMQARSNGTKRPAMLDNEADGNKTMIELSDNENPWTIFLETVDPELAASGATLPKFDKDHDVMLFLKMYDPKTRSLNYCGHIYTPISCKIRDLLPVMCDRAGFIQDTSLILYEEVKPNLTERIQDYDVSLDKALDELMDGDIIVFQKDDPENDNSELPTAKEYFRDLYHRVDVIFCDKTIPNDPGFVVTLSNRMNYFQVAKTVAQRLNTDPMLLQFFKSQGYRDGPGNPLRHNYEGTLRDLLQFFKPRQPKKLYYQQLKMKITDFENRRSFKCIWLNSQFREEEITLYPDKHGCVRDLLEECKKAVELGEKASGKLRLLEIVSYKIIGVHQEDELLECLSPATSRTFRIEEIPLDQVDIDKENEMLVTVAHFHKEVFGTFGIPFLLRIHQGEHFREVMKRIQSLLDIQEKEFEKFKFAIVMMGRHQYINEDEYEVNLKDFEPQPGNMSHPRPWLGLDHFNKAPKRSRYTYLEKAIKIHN
UniProt P08670, whole entry, looked up: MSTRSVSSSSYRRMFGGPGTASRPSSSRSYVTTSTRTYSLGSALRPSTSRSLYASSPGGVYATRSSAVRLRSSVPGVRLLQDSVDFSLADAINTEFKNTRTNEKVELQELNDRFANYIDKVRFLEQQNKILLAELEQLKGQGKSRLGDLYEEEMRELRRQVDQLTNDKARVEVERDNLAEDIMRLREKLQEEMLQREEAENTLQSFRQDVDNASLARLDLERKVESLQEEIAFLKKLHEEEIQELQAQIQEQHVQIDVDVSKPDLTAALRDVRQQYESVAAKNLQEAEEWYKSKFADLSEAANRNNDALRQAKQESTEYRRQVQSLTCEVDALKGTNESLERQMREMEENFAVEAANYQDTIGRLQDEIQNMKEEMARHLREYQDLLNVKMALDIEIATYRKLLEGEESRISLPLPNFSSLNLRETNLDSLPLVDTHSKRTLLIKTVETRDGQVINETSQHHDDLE

What was measured:
Assay in all cases: log2 fold change, soluble protein after heating vs DMSO (PISA); higher = thermal stabilisation; K562 lysate, 10 uM; active = over 0.2 and 3.5 SD of the protein, either way, in both replicates (recomputed)
[1] = compound: CCCS(=O)(=O)Nc1ccc(F)c(C(=O)c2c[nH]c3ncc(-c4ccc(Cl)cc4)cc23)c1F [vemurafenib]
Procedure, shortened: (§1)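 K562 pellets were dounce-homogenised in PBS pH 7.4 containing 1 mM MgCl2, and the crude extract, at 1 mg/mL protein, was exposed to 10 μM compound for 30 min. Aliquots were heated for 3 min across 48°C-58°C, pooled, brought to 0.5% NP-40 at 4°C and spun at 21,000xg for 90 min, with the supernatant taken as soluble protein. TMTpro 16plex LC-MS/MS with equalised channel sums quantified that protein. Values are log-two fold changes in thermal stability relative to solvent controls, taken from duplicates.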

[2] = compound: CCCS(=O)(=O)Nc1ccc(F)c(C(=O)c2c[nH]c3ncc(Cl)cc23)c1F
Procedure, shortened: as §1

[3] = compound: CCN(CCCOc1ccc2c(Nc3cc(CC(=O)Nc4cccc(F)c4)[nH]n3)ncnc2c1)CCOP(=O)(O)O [barasertib]
Procedure, shortened: as §1

[4] = compound: CC[C@@H]1C(=O)N(C)c2cnc(Nc3ccc(C(=O)NC4CCN(C)CC4)cc3OC)nc2N1C1CCCC1
Procedure, shortened: as §1

[5] = compound: CC[C@@H]1C(=O)N(C)c2cnc(Nc3ccc(C(=O)N[C@H]4CC[C@H](N5CCN(CC6CC6)CC5)CC4)cc3OC)nc2N1C(C)C [volasertib]
Procedure, shortened: as §1

[6] = compound: CCn1c(C(=O)N(C2CC2)C2CC2)cc2c3c(ncn3C)c(Nc3cc(C)n(C)n3)nc21
Procedure, shortened: as §1

[7] = compound: CCn1cc(-c2ccnc3[nH]c(-c4cccc(CN(C)C)c4)cc23)c(-c2ccc(NC(=O)N(C)C)cc2)n1
Procedure, shortened: as §1

[8] = compound: CN1CCC(CNc2ccc3ncc(-c4cccc(OC(F)(F)F)c4)n3n2)CC1
Procedure, shortened: as §1

[9] = compound: CN1CCN(CCOc2cc(OC3CCOCC3)c3c(Nc4c(Cl)ccc5c4OCO5)ncnc3c2)CC1 [saracatinib]
Procedure, shortened: as §1

[10] = compound: CN1CCN(c2nc(C3=C(c4c[nH]c5ccccc45)C(=O)NC3=O)c3ccccc3n2)CC1 [sotrastaurin]
Procedure, shortened: as §1

[11] = compound: CN1CC[C@H](c2c(O)cc(O)c3c(=O)cc(-c4ccccc4Cl)oc23)[C@H](O)C1 [alvocidib]
Procedure, shortened: as §1

[12] = compound: CN1CCc2c(c3ccccc3n2Cc2ccc(C(=O)NO)cc2)C1 [Tubastatin A]
Procedure, shortened: as §1

[13] = compound: CNC(=O)C1=CC=CC=C1NC2=NC(=NC=C2Cl)NC3=C(C=C(C=C3)N4CCOCC4)OC
Procedure, shortened: as §1

[14] = compound: CNC(=O)c1ccc(Nc2ncc(C(F)(F)F)c(NCc3nccnc3N(C)S(C)(=O)=O)n2)cc1 [defactinib]
Procedure, shortened: as §1

[15] = compound: CNc1nc(-c2ccc3c(N)n[nH]c3c2)cc(N2C[C@@H](C(=O)NC3CCCCC3)CC[C@H]2C)n1
Procedure, shortened: as §1

[16] = compound: COC(=O)N[C@@H](C)CNc1nccc(-c2cn(C(C)C)nc2-c2cc(Cl)cc(NS(C)(=O)=O)c2F)n1 [encorafenib]
Procedure, shortened: as §1

[17] = compound: COC(=O)[C@H](CCSC)NC(=O)C1=C(C=C(C=C1)NC[C@H](CS)N)C2=CC=CC=C2
Procedure, shortened: as §1

[18] = compound: COc1cc(Nc2ncc3c(n2)-c2ccc(Cl)cc2C(c2c(F)cccc2OC)=NC3)ccc1C(=O)O [alisertib]
Procedure, shortened: as §1

[19] = compound: COc1cc2nc(-c3cc(F)ccc3O)nc(N[C@@H]3CNC[C@H]3C(C)(C)O)c2cc1OC
Procedure, shortened: as §1

[20] = compound: COc1cc2ncnc(Nc3ccc(F)c(Cl)c3)c2cc1OCCCN1CCOCC1 [gefitinib]
Procedure, shortened: as §1

Measured: log2 fold change

UTP4 (UniProt Q969X6)
inactive: [1] 0.024 | [2] 0.027 | [3] -0.038 | [4] 0.071 | [5] -0.003 | [6] 0.023 | [7] -0.026 | [8] 0.016 | [9] 0.061 | [10] 0.025 | [11] -0.015 | [12] 0.002 | [13] 0.012 | [14] 0.01 | [15] -0.002 | [16] 0.085 | [17] 0 | [18] 0.034 | [19] -0.005 | [20] -0.029

VARS (UniProt P26640)
inactive: [1] 0.028 | [2] 0.007 | [3] 0.036 | [4] -0.077 | [5] -0.082 | [6] 0.04 | [7] -0.014 | [8] -0.039 | [9] -0.001 | [10] 0.03 | [11] -0.003 | [12] -0.086 | [13] 0.002 | [14] 0.025 | [15] -0.008 | [16] -0.008 | [17] 0.16 | [18] -0.02 | [19] 0.003 | [20] -0.006

VARS2, A0A0G2JL52
inactive: [1] -0.024 | [2] 0.037 | [3] 0.003 | [4] -0.018 | [5] -0.027 | [6] -0.022 | [7] -0.137 | [8] 0.039 | [9] 0.016 | [10] 0.03 | [11] -0.029 | [12] 0.03 | [13] 0.003 | [14] 0.009 | [15] -0.028 | [16] -0.02 | [17] -0.175 | [18] 0.022 | [19] 0.009 | [20] 0.029

UEVLD (UniProt Q8IX04)
inactive: [1] 0.008 | [2] -0.033 | [3] 0.012 | [4] -0.007 | [5] -0.002 | [6] 0.044 | [7] 0.014 | [8] 0.042 | [9] 0.036 | [10] 0.004 | [11] 0.021 | [12] 0.022 | [13] -0.04 | [14] -0.013 | [15] -0.036 | [16] 0.06 | [17] -0.055 | [18] -0.033 | [19] 0.042 | [20] -0.089

UFSP2 (UniProt Q9NUQ7)
inactive: [1] 0.074 | [2] -0.018 | [3] -0.019 | [4] 0.072 | [5] -0.071 | [6] 0.016 | [7] -0.011 | [8] 0.002 | [9] 0.036 | [10] 0.018 | [11] 0.034 | [12] 0.024 | [13] -0.045 | [14] 0.022 | [15] -0.036 | [16] 0.031 | [17] 0.055 | [18] 0.019 | [19] 0.035 | [20] -0.031

USP14 (UniProt P54578)
inactive: [1] 0.017 | [2] 0.003 | [3] -0.005 | [4] 0.008 | [5] -0.015 | [6] 0.002 | [7] 0.102 | [8] -0.03 | [9] -0.004 | [10] -0.018 | [11] 0.024 | [12] 0.014 | [13] -0.002 | [14] -0.014 | [15] 0.027 | [16] -0.01 | [17] 0.056 | [18] 0.013 | [19] -0.007 | [20] 0.004

USP7 (UniProt Q93009)
inactive: [1] 0.016 | [2] 0.01 | [3] 0.028 | [4] -0.065 | [5] -0.039 | [6] 0.032 | [7] -0.09 | [8] 0.024 | [9] -0.013 | [10] 0.007 | [11] -0.007 | [12] -0.097 | [13] 0.005 | [14] -0.004 | [15] -0.081 | [16] -0.001 | [17] 0.085 | [18] 0.005 | [19] -0.01 | [20] 0.01

VIM (UniProt P08670)
inactive: [1] -0.019 | [2] -0.009 | [3] 0.032 | [4] -0.044 | [5] 0.006 | [6] 0.021 | [7] 0.025 | [8] -0.032 | [9] 0.01 | [10] 0.008 | [11] 0.045 | [12] 0.026 | [13] -0.001 | [14] -0.014 | [15] -0.033 | [16] 0.005 | [17] -0.117 | [18] -0.011 | [19] 0.015 | [20] 0.004
